Reference: patent US20160038516A1, “COMBINATION CANCER THERAPY USING BISPHOSPHONATES AND ANTI-EGFR AGENTS” (Mone Zaidi Consulting, Inc., priority 2012, published 2016)
At least one structure is not confirmed: it was looked up by name or label, or the drawing left a doubt.

What was measured:
[1] = tested on: Caco-2 colon cancer cell line; assay: MTT cell viability, Caco-2; assay type: cell-based; details: Caco-2, wild type EGFR at moderate level
H1666 lung cancer cells = assay: MTT cell viability, H1666; assay type: cell-based; details: H1666, wild type EGFR at high level

O=P(O)(O)C(O)(Cn1ccnc1)P(=O)(O)O [zoledronic acid]
cell survival [1]: significantly attenuated
cell survival (H1666 lung cancer cells): significantly attenuated
